PMC3726778
Results are given in words; binding and its absence hold for the method and conditions named.

Legend:
[1] = molecular target: plakin domain of human periplakin (residues 131–871) (human) (UniProt O60437); assay: AUC; sedimentation velocity, c(s) analysis (SEDFIT); 100 mM NaCl, 20 mM sodium phosphate pH 7.4, 20°C; three concentrations between 0.05 and 4 mg/ml (0.5–35 µM); 25,000 and 40,000 rpm; both purified
[2] = molecular target: plakin domain of human envoplakin (residues 144–891) (human) (UniProt Q92817); assay: as above

binding [1]	binding [2]	Binder
no binding (tested: 0.5–35 µM)	–	plakin domain of human periplakin (residues 131–871) (domain or fragment, UniProt O60437 131-871) EVDPQVNWAALVEEKLDKLNNQSFGTDLPLVDHQVEEHNIFHNEVKAIGPHLAKDGDKEQNSELRAKYQKLLAASQARQQHLSSLQDYMQRCTNELYWLDQQAKGRMQYDWSDRNLDYPSRRRQYENFINRNLEAKEERINKLHSEGDQLLAAEHPGRNSIEAHMEAVHADWKEYLNLLICEESHLKYMEDYHQFHEDVKDAQELLRKVDSDLNQKYGPDFKDRYQIELLLRELDDQEKVLDKYEDVVQGLQKRGQQVVPLKYRRETPLKPIPVEALCDFEGEQGLISRGYSYTLQKNNGESWELMDSAGNKLIAPAVCFVIPPTDPEALALADSLGSQYRSVRQKAAGSKRTLQQRYEVLKTENPGDASDLQGRQLLAGLDKVASDLDRQEKAITGILRPPLEQGRAVQDSAERAKDLKNITNELLRIEPEKTRSTAEGEAFIQALPGSGTTPLLRTRVEDTNRKYEHLLQLLDLAQEKVDVANRLEKSLQQSWELLATHENHLNQDDTVPESSRVLDSKGQELAAMACELQAQKSLLGEVEQNLQAAKQCSSTLASRFQEHCPDLERQEAEVHKLGQRFNNLRQQVERRAQSLQSAKAAYEHFHRGHDHVLQFLVSIPSYEPQETDSLSQMETKLKNQKNLLDEIASREQEVQKICANSQQYQQAVKDYELEAEKLRSLLDLENGRRSHVSKRARLQSPATKVKEEEAALAAKFTEVYAINRQRLQNLEFALNLLRQQP
–	no binding (tested: 0.5–35 µM)	plakin domain of human envoplakin (residues 144–891) (domain or fragment, UniProt Q92817 144-891) PDVGPRVDWARVLEQKQKQVCAGQYGPGMAELEQQIAEHNILQKEIDAYGQQLRSLVGPDAATIRSQYRDLLKAASWRGQSLGSLYTHLQGCTRQLSALAEQQRRILQQDWSDLMADPAGVRREYEHFKQHELLSQEQSVNQLEDDGERMVELRHPAVGPIQAHQEALKMEWQNFLNLCICQETQLQHVEDYRRFQEEADSVSQTLAKLNSNLDAKYSPAPGGPPGAPTELLQQLEAEEKRLAVTERATGDLQRRSRDVAPLPQRRNPPQQPLHVDSICDWDSGEVQLLQGERYKLVDNTDPHAWVVQGPGGETKRAPAACFCIPAPDPDAVARASRLASELQALKQKLATVQSRLKASAVESLRPSQQAPSGSDLANPQAQKLLTQMTRLDGDLGQIERQVLAWARAPLSRPTPLEDLEGRIHSHEGTAQRLQSLGTEKETAQKECEAFLSTRPVGPAALQLPVALNSVKNKFSDVQVLCSLYGEKAKAALDLERQIQDADRVIRGFEATLVQEAPIPAEPGALQERVSELQRQRRELLEQQTCVLRLHRALKASEHACAALQNNFQEFCQDLPRQQRQVRALTDRYHAVGDQLDLREKVVQDAALTYQQFKNCKDNLSSWLEHLPRSQVRPSDGPSQIAYKLQAQKRLTQEIQSRERDRATASHLSQALQAALQDYELQADTYRCSLEPTLAVSAPKRPRVAPLQESIQAQEKNLAKAYTEVAAAQQQLLQQLEFARKMLEKKELS
